In PubChem BioAssay AID588649 (The Scripps Research Institute Molecular Screening Center, 2011):
This list holds what a sample rich in hits left over. Activity calls are given as the source filed them. No stated cut-off is given here; in the data, active means inhibition above about 40%; inactive means the rest.

System: Fam108b (ABHD17B) [Mus musculus]
Test: mouse ABHD17B hydrolase inhibitors – biochemical, gel-based ABPP, soluble recombinant form, HTS hits, late-stage follow-up (AID 588649)
Conditions: fluorophosphonate probe, at 20 µM, active compounds read high

## C=CCn1c(=S)[nH]c2scc(-c3ccco3)c2c1=O
  inhibition: inactive: 25%
